Our source for the binding values is publication PMC5558966.

No constants are given. Whether binding was seen depends on the method and setting. In cells and extracts the contact can be indirect. These calls come from enrichment with a bait or labelling near it, and not all partners need be listed.

T1: Imp4-FTpA (S. cerevisiae) (UniProt P53941)
T1 sequence: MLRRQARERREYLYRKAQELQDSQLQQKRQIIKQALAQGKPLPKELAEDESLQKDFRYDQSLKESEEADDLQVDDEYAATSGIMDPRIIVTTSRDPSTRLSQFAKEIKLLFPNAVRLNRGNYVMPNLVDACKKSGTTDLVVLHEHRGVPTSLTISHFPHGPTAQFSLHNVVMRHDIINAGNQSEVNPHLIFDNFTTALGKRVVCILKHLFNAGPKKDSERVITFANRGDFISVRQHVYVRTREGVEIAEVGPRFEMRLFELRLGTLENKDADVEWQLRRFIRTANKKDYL

B1: Imp3 (yeast, endogenous) (protein, UniProt P32899 1-183)
chain: MVRKLKHHEQKLLKKVDFLEWKQDQGHRDTQVMRTYHIQNREDYHKYNRICGDIRRLANKLSLLPPTDPFRRKHEQLLLDKLYAMGVLTTKSKISDLENKVTVSAICRRRLPVIMHRLKMAETIQDAVKFIEQGHVRVGPNLINDPAYLVTRNMEDYVTWVDNSKIKKTLLRYRNQIDDFDFS
B2: Rps5 (yeast, endogenous) (protein, UniProt P26783 1-225)
chain: MSDTEAPVEVQEDFEVVEEFTPVVLATPIPEEVQQAQTEIKLFNKWSFEEVEVKDASLVDYVQVRQPIFVAHTAGRYANKRFRKAQCPIIERLTNSLMMNGRNNGKKLKAVRIIKHTLDIINVLTDQNPIQVVVDAITNTGPREDTTRVGGGGAARRQAVDVSPLRRVNQAIALLTIGAREAAFRNIKTIAETLAEELINAAKGSSTSYAIKKKDELERVAKSNR
B3: Mpp10 (yeast, endogenous) (protein, UniProt P47083 1-593)
chain: MSELFGVLKSNAGRIILKDPSATSKDVKAYIDSVINTCKNGSITKKAELDEITVDGLDANQVWWQVKLVLDSIDGDLIQGIQELKDVVTPSHNLSDGSTLNSSSGEESELEEAESVFKEKQMLSADVSEIEEQSNDSLSENDEEPSMDDEKTSAEAAREEFAEEKRISSGQDERHSSPDPYGINDKFFDLEKFNRDTLAAEDSNEASEGSEDEDIDYFQDMPSDDEEEEAIYYEDFFDKPTKEPVKKHSDVKDPKEDEELDEEEHDSAMDKVKLDLFADEEDEPNAEGVGEASDKNLSSFEKQQIEIRKQIEQLENEAVAEKKWSLKGEVKAKDRPEDALLTEELEFDRTAKPVPVITSEVTESLEDMIRRRIQDSNFDDLQRRTLLDITRKSQRPQFELSDVKSSKSLAEIYEDDYTRAEDESALSEELQKAHSEISELYANLVYKLDVLSSVHFVPKPASTSLEIRVETPTISMEDAQPLYMSNASSLAPQEIYNVGKAEKDGEIRLKNGVAMSKEELTREDKNRLRRALKRKRSKANLPNVNKRSKRNDVVDTLSKAKNITVINQKGEKKDVSGKTKKSRSGPDSTNIKL

In this experiment the target is T1, Imp4-FTpA (S. cerevisiae). The experiment in a line: affinity purification with mass spectrometry; tandem affinity purification via Imp4-FTpA from S. cerevisiae (IgG Sepharose, TEV, anti-Flag agarose; TAP buffer 50 mM Tris-HCl pH 7.5, 150 mM NaCl), then 15–40% sucrose gradient; a top fraction on SDS-PAGE, Coomassie, bands identified by mass spectrometry.
In the case of B1, the binding entry is “binds”. As for B2, the entry is “binds”; as for B3, “binds”.
